Measured values from the supplement of paper PMC12823440, “Inhibitors supercharge kinase turnover through native proteolytic circuits” (Nature, 2025).
Structures can show the parent of a compound that is named as a salt. Some of the results follow. Hit calls seldom repeat between salt and free forms of one compound.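 In K562 cells expressing nanoluciferase-fused kinases, luminescence was recorded at 4 h intervals between 2 and 18 h, normalized as percent of control with DMSO at 100% and a positive control at 0%. A significant (2 sigma) signal drop marks a time point as decreased. The authors' rule for a hit is not shown and takes in more than the number of time points.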

Amino acid sequences for entries named in this document (tags omitted).
UniProt P50750, whole entry: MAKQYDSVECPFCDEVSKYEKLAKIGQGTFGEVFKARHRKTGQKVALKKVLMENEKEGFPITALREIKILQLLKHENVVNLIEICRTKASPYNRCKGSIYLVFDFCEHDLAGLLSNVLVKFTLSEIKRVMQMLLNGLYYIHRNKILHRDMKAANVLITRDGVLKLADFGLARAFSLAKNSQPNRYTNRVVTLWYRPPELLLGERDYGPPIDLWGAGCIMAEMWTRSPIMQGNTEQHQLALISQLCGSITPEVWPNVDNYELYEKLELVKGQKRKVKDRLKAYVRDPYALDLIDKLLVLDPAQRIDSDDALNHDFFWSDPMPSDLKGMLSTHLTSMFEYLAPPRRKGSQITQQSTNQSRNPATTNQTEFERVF

Target: CDK9 (UniProt P50750)
Experiment: number of time points (of 4; 2 h point missing) at which kinase-Nluc abundance scored as decreased, DMSO-normalised (count); higher = more persistent destabilization
Conditions: K562; 2-18 h

| Structure (SMILES) | number of time points |
| --- | --- |
| Cc1ccc(Nc2cc(N[C@@H]3CCCC[C@@H]3N)nnc2C(N)=O)nc1C (2 µM) | 0 |
| NC(=O)c1sc2c([N+](=O)[O-])cc(C(F)(F)F)cc2[n+]1[O-] [Cyclapolin 9] (10 µM) | 0 |
| O=C(C#Cc1ccccc1)c1cccc([N+](=O)[O-])c1 (10 µM) | 0 |
| NC(=O)c1ccccc1Nc1ccnc(Nc2cccc(O)c2)n1 (10 µM) | 0 |
| Cc1cncc2cccc(S(=O)(=O)N3CCCNC[C@@H]3C)c12 [H-1152 (dihydrochloride)] (10 µM) | 0 |
| C=CC(=O)Nc1cccc(Oc2nc(Nc3ccc(N4CCN(C)CC4)cc3OC)ncc2Cl)c1 (10 µM) | 0 |
| Cc1n[nH]c2ncc(C(=O)N3CCC[C@H]3c3ccc(Cl)cc3)cc12 (10 µM) | 0 |
| N#Cc1cnc(Nc2cc(NC[C@H]3CNCCO3)c(C(F)(F)F)cn2)cn1 (10 µM) | 0 |
| Cc1ncc(-c2cc(F)c(O)c(F)c2)cc1-c1cc(F)c(O)c(F)c1 (10 µM) | 0 |
| N#Cc1cc(N2CCC(C(=O)N3N=CC[C@H]3c3cc(F)cc(F)c3)CC2)ncn1 (10 µM) | 0 |
| C[C@H](Nc1cc2c(-c3ccc4c(c3)OCO4)noc2cn1)c1ccccc1 (10 µM) | 0 |
| CCOC(=O)c1c(N2CCc3ccc(OC)cc3C2)oc(C=C2C=Nc3ncccc32)c1O (10 µM) | 2 |
| CC(C)n1cnc2c(Nc3cccc(Cl)c3)nc(N[C@H]3CCCC[C@@H]3N)nc21 (2.5 µM) | 0 |
| Nc1ccc(Sc2nc3ccccc3s2)c(Cl)c1 [KRAS inhibitor-9] (10 µM) | 0 |
| COc1cc2c(cc1OC)[C@@H]1C(=O)c3ccc4c(c3O[C@@H]1CO2)C=CC(C)(C)O4 [Deguelin] (10 µM) | 0 |
| Cn1cc(-c2nc(N[C@@H]3CCCC[C@@H]3N)c(F)c3c2C(=O)NC3)cn1 [TAK-659 (hydrochloride)] (2 µM) | 0 |
| CCOC(=O)c1c(Nc2ccccc2Cl)oc(/C=C2\C=Nc3ncccc32)c1O (10 µM) | 0 |
| NC(=O)c1c(NC(=O)C2CC2)sc2c1CCCC2 (10 µM) | 0 |
| CN1CCC(Nc2nc(Nc3ccc(Oc4ccccc4)cc3)c3c(=O)[nH]cc(Br)c3n2)CC1 (2.5 µM) | 0 |

Copied from the list:
NC(=O)c1sc2c([N+](=O)[O-])cc(C(F)(F)F)cc2[n+]1[O-] [Cyclapolin 9] (10 µM) – number of time points: 0
Cc1n[nH]c2ncc(C(=O)N3CCC[C@H]3c3ccc(Cl)cc3)cc12 (10 µM) – number of time points: 0

Remaining list, next part.

| Structure (SMILES) | number of time points |
| --- | --- |
| N#CC(=C(/N)Sc1ccccc1N)/C(C#N)=C(\N)Sc1ccccc1N (10 µM) | 0 |
| CC(C)n1c(CO)nc2c(F)cc(-c3nc(Nc4ccc(CN5CCNCC5)cn4)ncc3F)cc21 (10 µM) | 4 |
| O=C(Nc1ccc(F)cc1F)C(NC(=S)Nc1cc(C(F)(F)F)cc(C(F)(F)F)c1)c1ccccc1 (racemic) (2.5 µM) | 0 |
| COCCNc1cc(NC(=O)N2CCCc3cc(CN4CCOCC4=O)c(C=O)nc32)ncc1C#N (10 µM) | 0 |
| CC/C(=C(\c1ccccc1)c1ccc(OCCNC)cc1)c1ccccc1 [N-Desmethyltamoxifen (hydrochloride)] (2.5 µM) | 0 |
| C[C@@H]1CN(Cc2ccc(F)cc2)[C@@H](C)CN1C(=O)c1cc2c(C(=O)C(=O)N(C)C)cn(C)c2cc1Cl [Talmapimod] (10 µM) | 0 |
| Nc1nccc(Oc2ccc3c(C(=O)Nc4cccc(C(F)(F)F)c4)cccc3c2)n1 (10 µM) | 3 |
| COc1c(Nc2ncc(Cl)c(N[C@H]3[C@@H](C(N)=O)[C@@H]4C=C[C@H]3C4)n2)ccc2c1CC[C@@H](N1CCOCC1)CC2 (10 µM) | 0 |
| CNCc1ccccc1Sc1cccc2ccccc12 [IFN alpha-IFNAR-IN-1 (hydrochloride)] (10 µM) | 0 |
| COc1cccc(-c2cc(=O)c3ccccc3o2)c1N (10 µM) | 0 |
| Nc1ccc(-c2nc3ccc(-c4nc5ccc(N)cc5[nH]4)cc3[nH]2)cc1 (10 µM) | 0 |
| Cc1ccc(C2CC(=O)NC(SCC(=O)Nc3nccs3)=C2C#N)cc1 (stereo not drawn) [Necrostatin-34] (10 µM) | 0 |
| CC(C)Cn1ncc2cc(Oc3ccc(F)cc3F)c(C(=O)NCCN(C)C)cc21 [p38α inhibitor 1] (10 µM) | 0 |
| O=C(NC[C@H](O)CO)c1ccncc1Nc1ccc(I)cc1F [Pimasertib] (10 µM) | 0 |
| CN1C(=O)N[C@@H](Cc2c[nH]c3c(Cl)cccc23)C1=O [Necrostatin 2 (S enantiomer)] (10 µM) | 0 |
| Cc1cc2c(F)c(Oc3ncnn4cc(OC[C@@H](C)OC(=O)[C@H](C)N)c(C)c34)ccc2[nH]1 [Brivanib (alaninate)] (10 µM) | 0 |
| C=CC(=O)Nc1cc(Nc2nccc(-c3cn(C)c4ccccc34)n2)c(OCC(F)(F)F)nc1N(C)CCNC [AST5902  (trimesylate)] (2.5 µM) | 0 |
| COc1cc2nccc(Nc3cccc(Oc4ccccc4)c3)c2cc1OC (2.5 µM) | 0 |
| CC(C)(Oc1ccc(Cl)cc1)C(=O)Nc1ccc(OCc2ccc(C#N)cc2)cc1 [AMPK activator 4] (10 µM) | 0 |
